Measurements taken from article PMC10682013.

Sequences of proteins named here, by UniProt entry; tags and fusion partners are left off.
UniProt P52732: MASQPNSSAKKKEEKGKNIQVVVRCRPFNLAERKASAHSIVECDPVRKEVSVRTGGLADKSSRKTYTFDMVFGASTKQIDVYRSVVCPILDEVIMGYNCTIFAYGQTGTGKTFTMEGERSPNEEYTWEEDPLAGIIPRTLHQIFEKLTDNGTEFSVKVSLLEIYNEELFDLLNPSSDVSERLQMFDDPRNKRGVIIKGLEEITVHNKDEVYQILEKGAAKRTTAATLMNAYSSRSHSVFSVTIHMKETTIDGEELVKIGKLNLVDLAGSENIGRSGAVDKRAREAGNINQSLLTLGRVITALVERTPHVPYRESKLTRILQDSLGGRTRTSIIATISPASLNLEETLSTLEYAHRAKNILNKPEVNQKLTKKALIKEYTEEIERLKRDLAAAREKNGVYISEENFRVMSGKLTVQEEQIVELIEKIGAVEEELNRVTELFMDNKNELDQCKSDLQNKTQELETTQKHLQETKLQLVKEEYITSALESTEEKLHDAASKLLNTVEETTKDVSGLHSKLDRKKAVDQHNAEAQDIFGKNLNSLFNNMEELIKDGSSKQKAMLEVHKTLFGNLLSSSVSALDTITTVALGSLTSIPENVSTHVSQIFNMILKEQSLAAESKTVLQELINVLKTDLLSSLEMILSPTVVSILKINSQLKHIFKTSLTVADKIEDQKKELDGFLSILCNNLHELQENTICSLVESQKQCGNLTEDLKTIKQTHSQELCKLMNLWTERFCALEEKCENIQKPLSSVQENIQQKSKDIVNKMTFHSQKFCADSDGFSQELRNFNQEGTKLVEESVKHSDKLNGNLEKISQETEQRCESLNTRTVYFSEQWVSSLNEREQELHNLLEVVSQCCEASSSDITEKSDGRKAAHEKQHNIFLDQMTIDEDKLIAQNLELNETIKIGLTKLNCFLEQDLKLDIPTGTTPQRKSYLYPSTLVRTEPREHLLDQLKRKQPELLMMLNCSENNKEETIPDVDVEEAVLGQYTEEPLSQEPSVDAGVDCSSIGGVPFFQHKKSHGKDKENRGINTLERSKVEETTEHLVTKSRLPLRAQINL

Biological target: 3×Flag-TACC3 (Transforming acidic coiled-coil-containing protein 3) (UniProt Q9Y6A5)
Experiment: affinity purification with mass spectrometry; 3×Flag-TACC3 expressed in HEK293T cells; whole cell lysate; precipitated with an IgG antibody specific to 3×Flag, normal IgG as control; proteins in the precipitate identified by mass spectrometry

“Kinesin Family Member 11 (KIF11), endogenous (from UniProt P52732 1-1056)” was tested, and the binding was “binds”.

No constants are given. Whether binding was seen depends on the method and setting. Binding seen in cells or lysates may run through a third protein. A yes stands for co-enrichment or nearness to the bait. Other partners may have been found.
